# The campaign covered roughly 300,000 compounds. About 3,700 (1.2%) were called active. This list was built around the results that the source calls inconclusive (neither active nor inactive); the mix of calls is not that of the screen. The call rests on the fitted dose curve; tested in HEK293 cells. Potencies beside an inconclusive call are fits to weak or partial responses and may not hold up.
# Assay: qHTS for Inhibitors of binding or entry into cells for Lassa Virus; further: nearly all actives have a fitted effect of over 50% in size
# Conditions: Lassa virus pseudotype entry inhibition, cell reporter; series mostly up to 37.9 µM
# Potency means the concentration at half of the fitted maximal effect.
row,SMILES,Potency
1,CCOC(=O)c1ccc(NC(=O)c2cc(C)nc3ccccc23)cc1,"inconclusive: 0.355 µM [activator, partial curve, poor fit]"
2,O=S1(=O)CCSC[C@@H](CN2CCCC2)N1,"inconclusive: 0.01 µM [inhibitor, full curve, poor fit]"
3,Cc1ccccc1Oc1nc(-c2ccccn2)nc2ccccc12,"inconclusive: 35.5 µM [inhibitor, partial curve, poor fit]"
4,CCCOc1ccc(-c2nc(SCC(=O)c3ccc(Cl)cc3)n[nH]2)cc1,"inconclusive: 0.631 µM [inhibitor, full curve, poor fit]"
5,C=CCc1ccc(OCc2ccc(C(=O)OC)o2)c(OC)c1,"inconclusive: 22.4 µM [inhibitor, single point]"
6,O=C(NC(=S)NC1CCCc2ccccc21)c1ccc(F)cc1 (stereo not drawn),"inconclusive: 20 µM [inhibitor, single point]"
7,Cc1cccc2c1cnn2C(=O)Nc1ccccc1Cl,"inconclusive: 11.2 µM [activator, partial curve, poor fit]"
8,Cc1ccc(S(=O)(=O)Nc2ccc(SC(F)F)cc2)c(C)c1,"inconclusive: 14.1 µM [activator, partial curve, poor fit]"
9,CCOC(=O)CSc1ccc(-c2nc3cc(C)c(C)cc3[nH]2)cn1,"inconclusive: 1.3 µM [activator, partial curve]"
10,Cn1c(SCc2ccc(C#N)cc2Cl)nc2ccccc21,"inconclusive: 4.11 µM [activator, partial curve, poor fit]"
11,CC1CCc2cc(F)ccc2N1C(=O)C12CCC(C)(C(=O)O1)C2(C)C (stereo not drawn),"inconclusive: 3.16 µM [inhibitor, single point]"
12,Cc1cccc(CN(CC(=O)N/N=C/c2ccco2)S(=O)(=O)c2ccc(Cl)cc2)c1,"inconclusive: 20 µM [inhibitor, partial curve]"
13,Nc1cc(Cl)cc2c1-c1ccc(Cl)cc1C2O (stereo not drawn),inactive
14,Cc1ccc(CNC(=O)CN(C(=O)C2(C)CC(=O)N=C3C=CC=CN32)c2ccccc2)cc1 (stereo not drawn),"inconclusive: 6.31 µM [inhibitor, single point]"
15,CC(C)c1cc(CN2CCN(CCC#N)CC2)cc(C(C)C)c1O,"inconclusive: 3.16 µM [activator, partial curve]"
16,Cc1onc(-c2ccccc2)c1C(=O)NC(=S)NNC(=O)c1ccccc1O,"inconclusive: 4.11 µM [inhibitor, full curve, poor fit]"
17,CC1CCC2C(=O)N(c3ccc(Cc4ccncc4)cc3)C(=O)C2C1 (stereo not drawn),"inconclusive: 5.62 µM [inhibitor, partial curve]"
18,CCOC(=O)C1=C(C)NC(=O)NC1c1ccc(-c2ccccc2F)o1 (stereo not drawn),"inconclusive: 1.41 µM [inhibitor, partial curve, poor fit]"
19,CCOCCCn1cc(C(=O)c2cc(Br)ccc2O)cc(C#N)c1=O,"inconclusive: 35.5 µM [inhibitor, single point]"
20,CCc1ccc2[nH]c(=O)c(CN(Cc3ccccc3OC)C(=O)Nc3ccccc3OC)cc2c1,"inconclusive: 29.1 µM [inhibitor, single point]"
21,COc1cccc(CNC(=O)CSc2ccc(-c3ccccn3)nn2)c1,"inconclusive: 35.5 µM [inhibitor, single point]"
22,CCOC(=O)c1c(Nc2ccc(OC)cc2)nnc(-c2ccccc2)c1-c1ccccc1,"inconclusive: 1 µM [inhibitor, full curve, poor fit]"
23,CSc1cc(C)c(OCC(=O)Nc2c(C)nn(C)c2C)c(C)c1,"inconclusive: 7.08 µM [inhibitor, partial curve]"

# A second format for 4 compounds above:
row	SMILES	Potency
1	CCOC(=O)c1ccc(NC(=O)c2cc(C)nc3ccccc23)cc1	inconclusive: 0.355 µM [activator, partial curve, poor fit]
2	O=S1(=O)CCSC[C@@H](CN2CCCC2)N1	inconclusive: 0.01 µM [inhibitor, full curve, poor fit]
18	CCOC(=O)C1=C(C)NC(=O)NC1c1ccc(-c2ccccc2F)o1 (stereo not drawn)	inconclusive: 1.41 µM [inhibitor, partial curve, poor fit]
22	CCOC(=O)c1c(Nc2ccc(OC)cc2)nnc(-c2ccccc2)c1-c1ccccc1	inconclusive: 1 µM [inhibitor, full curve, poor fit]

# Remaining list, next part

row,SMILES,Potency
1,O=C(c1ccc(Cl)c(S(=O)(=O)NCc2ccco2)c1)N1CCN(c2ccccc2F)CC1,"inconclusive: 29.1 µM [inhibitor, single point]"
2,Cc1ccccc1NC(=O)Cn1c(=O)n(Cc2ccc3c(c2)OCO3)c(=O)c2ccccc21,inactive
3,CCN(CC)CCNC(=O)c1c2c(nc3ccccc13)C(=O)N(C1CCCCC1)C2,inactive
4,O=C(CN1CCN(c2ccccc2O)CC1)Nc1cccnc1Cl,"inconclusive: 11.2 µM [inhibitor, partial curve, poor fit]"
5,CCCCC(=O)N1CCN(c2nc3ccc(Br)cc3s2)CC1,"inconclusive: 15.8 µM [inhibitor, single point]"
6,Cc1ccc(S(=O)(=O)NCCc2cn3ccsc3n2)c(C)c1,inactive
7,CCOc1ccc2ccccc2c1C(=O)N1CCOCC1,"inconclusive: 2.06 µM [inhibitor, partial curve]"
8,Cc1nc(C(=O)NNC(=O)c2ccc(C(F)(F)F)cc2)cs1,inactive
9,CCNC(=S)Nc1cc(OCC)c(N2CCOCC2)cc1OCC,"inconclusive: 1.26 µM [inhibitor, single point]"
10,CC1=CC(C)(C)NC(=S)N1c1ccc2ccccc2c1,inactive
11,CN1CCN(Cc2cc(COCc3ccccc3)c3cccnc3c2O)CC1,"inconclusive: 10 µM [inhibitor, partial curve, poor fit]"
12,COc1ccc(C(=O)NC(=S)NNC(=O)c2cccc(C)c2)cc1,"inconclusive: 14.1 µM [inhibitor, single point]"
13,COc1ccc(C2=NN(C(=O)CSc3nc4ncc(Cl)cc4[nH]3)C(c3ccco3)C2)cc1 (stereo not drawn),inactive
14,CCOc1ccc(N=Cc2c(O)n(-c3cccc(C)n3)c(=O)c3ccccc23)cc1,"inconclusive: 32.6 µM [inhibitor, single point]"
15,Cc1ccc(S(=O)(=O)Nc2ccccc2C(=O)N2CCCCCC2)cc1,"inconclusive: 35.5 µM [inhibitor, single point]"
16,Cc1ccc(S(=O)(=O)c2nc(S(=O)(=O)c3ccccc3)sc2NCCCOC(C)C)cc1,inactive
17,O=C(NCc1ccco1)c1cccc(S(=O)(=O)N2CCCCC2)c1,inactive
18,COc1ccc(-c2cccc(C(=O)Nc3ccc(OC)c(OC)c3)c2)cc1,"inconclusive: 0.708 µM [activator, single point]"
19,CCOc1ccccc1C(=O)N[C@H](C(=O)OCc1cc([N+](=O)[O-])cc2c1OCOC2)C(C)C,"inconclusive: 35.5 µM [inhibitor, single point]"
20,COc1ccc(-c2nc3cc(NC(=O)CSc4ccc(C)cc4)ccc3o2)cc1,"inconclusive: 0.631 µM [activator, full curve, poor fit]"
21,Cc1ccc2nc(-c3ccncc3)[nH]c2c1,inactive
22,COc1cc2c(cc1OC)CN(CCC(C)c1ccc(Cl)cc1)CC2 (stereo not drawn),"inconclusive: 35.5 µM [inhibitor, partial curve, poor fit]"
23,O=C(Nc1ncc(Cc2ccccc2)s1)C1CCCO1 (stereo not drawn),active: 14.6 µM

row,SMILES,Potency
1,COc1ccccc1-c1cc(C(=O)NCc2ccccc2)c2c(-c3ccc(C)cc3)[nH]nc2n1,inactive
2,Cc1cc(NC(=O)CCC(=O)N(CCC(C)C)C(C(=O)NC2CCCC2)c2ccccc2C)no1 (stereo not drawn),inactive
3,COc1cc(SC)ccc1C(=O)Nc1cc(C)ccn1,"inconclusive: 23.1 µM [inhibitor, single point]"
4,Cc1ccc(NC(=O)CN(C)CC(=O)NC2CCCc3ccccc32)cc1 (stereo not drawn),"inconclusive: 35.5 µM [inhibitor, single point]"
5,Oc1[nH]c2ccc(Br)cc2c1N=NC(=S)NCC1CCCO1 (stereo not drawn),"inconclusive: 10 µM [inhibitor, partial curve, poor fit]"
6,COc1ccccc1NC(=O)Nc1cc(NC(=O)Nc2ccccc2OC)c(C)nc1C,"inconclusive: 22.4 µM [inhibitor, single point]"
7,Cc1ccc(C)n1-c1nnc(N2CCCC(C(=O)Nc3ccccc3Br)C2)s1 (stereo not drawn),inactive
8,CN(C)c1ccc(/C=N/NC(=O)CNC(=O)/C=C/c2ccccc2)cc1,inactive
9,CC1CCN(c2ncnc3c2c(-c2ccccc2)cn3-c2ccc(Br)cc2)CC1,inactive
10,CCOc1ccccc1CNC(=O)c1oc2c(c1C)-c1[nH]ncc1CC2,"inconclusive: 11.2 µM [inhibitor, partial curve]"
11,O=C(CCn1cnc2ccccc21)N/N=C/c1ccc(O)cc1,"inconclusive: 22.4 µM [inhibitor, partial curve, poor fit]"
12,Cc1cc(C)cc(NC(=O)c2ccc([N+](=O)[O-])o2)c1,"inconclusive: 8.91 µM [inhibitor, partial curve, poor fit]"
13,COc1ccc(C2c3c(ccc4ccccc34)Oc3ncn4nc(CO/N=C/c5ccccc5)nc4c32)cc1 (stereo not drawn),"inconclusive: 0.461 µM [inhibitor, partial curve, poor fit]"
14,O=C(Nc1ccc(Oc2ccc3ccccc3c2)cc1)c1ccco1,inactive
15,CC(C)n1nc(C(=O)Nc2ccccc2N2CCOCC2)c2ccccc2c1=O,"inconclusive: 5.62 µM [inhibitor, single point]"
16,CCC(Sc1ncnc2c1nnn2-c1ccc(F)cc1)C(=O)OC (stereo not drawn),inactive
17,CCOc1ccccc1CNc1ccc(O)cc1,"inconclusive: 20 µM [inhibitor, single point]"
18,O=C(NNc1nc2ccc(F)cc2s1)c1cccc(F)c1,"inconclusive: 12.6 µM [inhibitor, partial curve, poor fit]"
19,CCOC(=O)CSc1nc(N)c(C(=O)Nc2ccc(N(C)C)cc2)s1,"inconclusive: 23.1 µM [inhibitor, partial curve, poor fit]"
20,CCOc1ccc(NC(=O)NC2CCCCCCC2)cc1,"inconclusive: 3.98 µM [inhibitor, single point]"
21,Cc1[nH]c2ccccc2c1C(=O)CSc1ccccc1,inactive
22,O=C(Nc1nnc(-c2ccco2)o1)c1ccc([N+](=O)[O-])s1,"inconclusive: 35.5 µM [inhibitor, single point]"
